The assay concerns the target T1, Flag-ABCF2 (pCAGGS-N-flag-ABCF2-P) (UniProt Q9UG63).
T1 sequence: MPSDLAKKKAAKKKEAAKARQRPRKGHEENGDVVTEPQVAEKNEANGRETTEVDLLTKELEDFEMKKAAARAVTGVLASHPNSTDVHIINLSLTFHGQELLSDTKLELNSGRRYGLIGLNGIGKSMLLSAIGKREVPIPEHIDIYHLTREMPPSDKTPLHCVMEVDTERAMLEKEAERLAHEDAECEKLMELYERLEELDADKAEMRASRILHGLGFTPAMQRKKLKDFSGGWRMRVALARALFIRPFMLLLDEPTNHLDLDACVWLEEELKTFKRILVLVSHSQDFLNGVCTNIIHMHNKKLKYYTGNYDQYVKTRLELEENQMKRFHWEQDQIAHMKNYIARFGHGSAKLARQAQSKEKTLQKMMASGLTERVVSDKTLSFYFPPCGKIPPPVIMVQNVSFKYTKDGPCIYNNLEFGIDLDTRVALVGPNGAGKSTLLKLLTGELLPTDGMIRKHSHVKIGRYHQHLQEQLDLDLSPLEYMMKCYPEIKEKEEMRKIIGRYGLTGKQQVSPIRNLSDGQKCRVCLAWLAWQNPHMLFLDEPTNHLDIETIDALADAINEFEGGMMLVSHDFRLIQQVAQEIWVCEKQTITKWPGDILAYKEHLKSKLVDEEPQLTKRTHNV
Nature of the assay: co-IP; lysate (2 mg) of HEK293T cells transfected with pCAGGS-N-flag-ABCF2-P incubated with His-tagged PlpE or mutant proteins (2.5 ug) 2 h at 4 C; anti-[…] antibody on protein A/G beads overnight at 4 C; eluted with 3x Flag peptide; blots with anti-[…] and anti-His; only the binder purified.

No constants are given. Whether binding was seen depends on the method and setting. Binding seen in cells or lysates may run through a third protein. Binding calls can cover weak binding; strength is not graded here. Sequences can lack the tags named with a protein.

“His-tagged Pasteurella lipoprotein E (PlpE) of P. multocida”: the binding entry was “binds”.

The record behind these values is paper PMC13529201.
